Laboratory results as given in PMC11362010.
No constants are given. Whether binding was seen depends on the method and setting. In cells and extracts the contact can be indirect. These calls come from enrichment with a bait or labelling near it, and not all partners need be listed.

Amino acid sequences for entries named in this document (tags omitted).
UniProt Q61937: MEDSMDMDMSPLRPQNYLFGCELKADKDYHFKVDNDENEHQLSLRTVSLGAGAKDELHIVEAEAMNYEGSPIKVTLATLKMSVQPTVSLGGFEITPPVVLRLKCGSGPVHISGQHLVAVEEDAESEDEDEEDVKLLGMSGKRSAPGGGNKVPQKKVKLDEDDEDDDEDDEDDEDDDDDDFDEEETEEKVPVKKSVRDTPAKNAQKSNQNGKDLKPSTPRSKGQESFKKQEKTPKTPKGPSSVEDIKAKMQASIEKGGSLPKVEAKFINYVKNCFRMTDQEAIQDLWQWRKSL
UniProt Q04207: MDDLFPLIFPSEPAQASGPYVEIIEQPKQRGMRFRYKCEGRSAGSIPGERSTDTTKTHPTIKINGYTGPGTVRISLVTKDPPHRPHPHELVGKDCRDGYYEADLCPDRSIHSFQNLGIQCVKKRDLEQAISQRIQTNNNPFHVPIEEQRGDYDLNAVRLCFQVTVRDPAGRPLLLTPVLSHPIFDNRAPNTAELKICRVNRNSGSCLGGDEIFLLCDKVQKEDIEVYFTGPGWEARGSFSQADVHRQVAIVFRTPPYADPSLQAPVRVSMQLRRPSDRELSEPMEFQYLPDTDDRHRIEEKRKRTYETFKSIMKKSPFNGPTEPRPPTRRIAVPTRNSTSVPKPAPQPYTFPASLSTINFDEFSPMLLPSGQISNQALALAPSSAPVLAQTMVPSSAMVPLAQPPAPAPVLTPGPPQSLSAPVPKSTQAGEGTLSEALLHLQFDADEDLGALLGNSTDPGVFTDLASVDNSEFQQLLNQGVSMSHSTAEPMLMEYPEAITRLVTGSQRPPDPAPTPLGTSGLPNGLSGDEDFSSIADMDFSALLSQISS

Biological target: Nucleophosmin 1 (mouse (endogenous in MNK3)) (UniProt Q61937)
Assay: affinity purification with mass spectrometry; NPM1 immunoprecipitated from MNK3 cells with or without stimulation; SDS-PAGE, silver stain; band of ~70 kDa enriched in stimulated cells excised and identified by MS (Q Exactive, MASCOT)

binding: binds
Substance: p65, a component of the nuclear factor kappa B (NF-κB) transcription factor (from UniProt Q04207 1-549)
